The list shows only some results of the screen, not a fair sample: it is rich in T/C values a quarter to a half above the control, in often repeated tests (any T/C) and in doses without a T/C. Further doses and runs are listed elsewhere. T/C gives the treated animals as a percentage of the vehicle group. Some entries give survivors of the animals treated and no T/C: the source holds a T/C of zero for them, seemingly a mark for toxic or unscored doses. Some doses without a T/C left all or most animals alive at the check, yet need not have been tolerated: the source hardly ever lists a survival T/C far under the control, and the zero likely stands for such cases as well. Survivors were counted at the toxicity check, usually on the fifth day, unless a day is given; later deaths do not show. Schedules are NCI's codes, taken here to give the interval after Q, in days (D) or hours (H), and the number of doses after X. Counts like (3×) stand for listed records that agree. Some molecules as drawn cover several salts, stereoisomers or complexes of the source; a dose is that of the sample tested. Where survival is the endpoint, the PubChem record calls one and a half times the control and up active, and a quarter to a half above the control has no call in these data; cut-offs in other NCI protocols can differ. Some doses were run more than once; the results are listed from low to high. Some T/C values carry the count of animals alive at the toxicity check (mostly the fifth day); without a count, all were alive then.
Test system: BDF1 mice, P388 leukemia ip, median survival T/C
Test: NCI In Vivo Anticancer Drug Screen. Data for tumor model P388 Leukemia (intraperitoneal) in B6D2F1 (BDF1) mice
Conditions: T/C endpoint: median survival time, higher T/C = longer survival
Method in brief: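 Each value expresses how treatment altered survival: treated-mouse outcome over vehicle-mouse outcome, both groups bearing the transplanted tumour.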

[1] = dose: 12.5 mg/kg/injection, schedule: Q01DX009 (ip), vehicle: Klucel (hydroxypropylcellulose) (HPC)
[2] = dose: 25.0 mg/kg/injection, schedule: Q01DX009 (ip), vehicle: saline with Tween-80
[3] = dose: 50.0 mg/kg/injection, schedule: Q01DX009 (ip), vehicle: saline with Tween-80
[4] = dose: 100.0 mg/kg/injection, schedule: Q01DX009 (ip), vehicle: saline with Tween-80
[5] = dose: 400.0 mg/kg/injection, schedule: Q01DX009 (ip), vehicle: saline
[6] = dose: 200.0 mg/kg/injection, schedule: Q01DX009 (ip), vehicle: saline with Tween-80
[7] = dose: 400.0 mg/kg/injection, schedule: Q01DX009 (ip), vehicle: saline with Tween-80
[8] = dose: 400.0 mg/kg/injection, schedule: Q04DX003 (ip), vehicle: saline
[9] = dose: 200.0 mg/kg/injection, schedule: Q04DX003 (ip), vehicle: saline with Tween-80

SMILES: Cc1cc(C)c2cc3cccc[n+]3cc2c1
- survivor count (dose: 8.0 mg/kg/injection, schedule: Q01DX010 (ip), vehicle: carboxymethylcellulose (CMC)): 2 of 6
- survivor count (dose: 16.0 mg/kg/injection, schedule: Q01DX010 (ip), vehicle: carboxymethylcellulose (CMC)): 1 of 6
- survivor count (dose: 32.0 mg/kg/injection, schedule: Q01DX010 (ip), vehicle: carboxymethylcellulose (CMC)): 0 of 6

SMILES: COc1c(CO)c2c(c(OC)c1OC)-c1ccc(OC)c(=O)cc1[C@@H](NC(C)=O)CC2
- T/C (dose: 6.25 mg/kg/injection, schedule: Q01DX009 (ip), vehicle: Klucel (hydroxypropylcellulose) (HPC)): 144 % of control
- T/C [1]: 144 % of control
- T/C (dose: 100.0 mg/kg/injection, schedule: Q01DX009 (ip), vehicle: Klucel (hydroxypropylcellulose) (HPC)): 126 % of control

SMILES: CC(=O)c1c(O)c(C)c(O)c2c1OC1=CC(=O)C(C(C)=O)C(=O)C12C (stereo not drawn)
- T/C (dose: 50.0 mg/kg/injection, schedule: Q01DX009 (ip), vehicle: gum acacia): 132 % of control
- T/C (dose: 100.0 mg/kg/injection, schedule: Q01DX009 (ip), vehicle: gum acacia): 130 % of control
- T/C (dose: 118.0 mg/kg/injection, schedule: Q01DX010 (ip), vehicle: saline): 130 % of control
- T/C (dose: 177.0 mg/kg/injection, schedule: Q01DX010 (ip), vehicle: saline): 135 % of control
- survivor count (dose: 200.0 mg/kg/injection, schedule: Q01DX009 (ip), vehicle: gum acacia): 6 of 6
- survivor count (dose: 266.0 mg/kg/injection, schedule: Q01DX010 (ip), vehicle: saline): 5 of 6
- survivor count (dose: 400.0 mg/kg/injection, schedule: Q01DX009 (ip), vehicle: gum acacia): 6 of 6

SMILES: O=Cc1ccc([N+](=O)[O-])s1
- T/C (dose: 12.5 mg/kg/injection, schedule: Q01DX009 (ip), vehicle: saline with Tween-80): 125 % of control
- T/C [2]: 127 % of control [5 of 6 alive]
- survivor count [3]: 0 of 6
- survivor count [4]: 0 of 6

SMILES: OCC(CO)(CO)CBr
- survivor count (dose: 264.0 mg/kg/injection, schedule: Q01DX009 (ip), vehicle: saline): 6 of 6
- T/C [5]: 125 % of control

SMILES: O=C1CN(Cc2ccccc2)CC(=O)N2Cc3ccccc3CN12
- survivor count (dose: 50.0 mg/kg/injection, schedule: Q01DX005 (ip), vehicle: saline with Tween-80): 5 of 5

SMILES: Ic1ccccc1C[N+]12CN3CN(CN(C3)C1)C2
- T/C (dose: 132.0 mg/kg/injection, schedule: Q01DX009 (ip), vehicle: saline with Tween-80): 130 [5 of 6 alive] and 138 % of control
- survivor count (dose: 175.0 mg/kg/injection, schedule: Q01DX009 (ip), vehicle: saline with Tween-80): 0 of 6
- T/C [6]: 123, 133, 140, 142 % of control
- T/C (dose: 200.0 mg/kg/injection, schedule: Q01DX009 (ip), vehicle: saline): 145 % of control
- T/C (dose: 265.0 mg/kg/injection, schedule: Q01DX009 (ip), vehicle: saline with Tween-80): 131 % of control [5 of 6 alive]
- T/C (dose: 300.0 mg/kg/injection, schedule: Q01DX009 (ip), vehicle: saline with Tween-80): 138 % of control [5 of 6 alive]
- survivor count (dose: 400.0 mg/kg/injection, schedule: Q01DX009 (ip), vehicle: alcohol): 0 of 6
- survivor count [7]: 0 of 6
- T/C [5]: 130 % of control [4 of 6 alive]
- survivor count (dose: 600.0 mg/kg/injection, schedule: Q01DX009 (ip), vehicle: saline with Tween-80): 0 of 6

SMILES: O/N=C(\c1ccccc1)c1ccccn1
- survivor count [4]: 6 of 6

SMILES: CC(=O)CC(=O)C(F)(F)F.CC(=O)CC(=O)C(F)(F)F.[O]=[V]
- survivor count (dose: 15.0 mg/kg/injection, schedule: Q01DX009 (ip), vehicle: Klucel (hydroxypropylcellulose) (HPC)): 1 of 6
- survivor count (dose: 30.0 mg/kg/injection, schedule: Q01DX009 (ip), vehicle: Klucel (hydroxypropylcellulose) (HPC)): 2 of 6

SMILES: O=c1[nH]c(SCc2ccc([N+](=O)[O-])cc2)nc2ccccc12
- survivor count (dose: 400.0 mg/kg/injection, schedule: Q04DX003 (ip), vehicle: Klucel (hydroxypropylcellulose) (HPC)): 6 of 6

SMILES: CC(C(=O)O)S(=O)(=O)c1ccccc1 (stereo not drawn)
- survivor count (dose: 400.0 mg/kg/injection, schedule: Q04DX002 (ip), vehicle: saline with Tween-80): 2 of 6

SMILES: CCc1ccc(C(=O)N/N=C(\C)[C@]2(O)Cc3c(O)c4c(c(O)c3[C@@H](OC3CC(N)C(O)C(C)O3)C2)C(=O)c2c(OC)cccc2C4=O)cc1 (stereo partly drawn)
- T/C (dose: 1.56 mg/kg/injection, schedule: Q01DX009 (ip), vehicle: water): 131 % of control
- T/C (dose: 3.12 mg/kg/injection, schedule: Q01DX009 (ip), vehicle: water): 133 % of control [5 of 6 alive]
- survivor count (dose: 25.0 mg/kg/injection, schedule: Q01DX009 (ip), vehicle: water): 6 of 6 (2×)

SMILES: c1cc[c]([Sb]([c]2ccccc2)[c]2ccccc2)cc1
- survivor count (dose: 10.0 mg/kg/injection, schedule: Q04DX003 (ip), vehicle: saline with Tween-80): 6 of 6
- survivor count (dose: 40.0 mg/kg/injection, schedule: Q04DX003 (ip), vehicle: saline with Tween-80): 5 of 6

SMILES: O=[N+]([O-])c1ccc(OCCNS(=O)(=O)c2cccc(S(=O)(=O)F)c2)c(Cl)c1
- survivor count [2]: 5 of 6
- survivor count [3]: 6 of 6
- survivor count [4]: 5 of 6
- survivor count [6]: 6 of 6

SMILES: CCN(CC)CCC1(C(N)=O)Cc2ccccc2N(CC)c2ccccc21 (stereo not drawn)
- survivor count [7]: 2 of 6

SMILES: COc1cc2c[n+](C)c3c4cc(OC)c(OC)cc4ccc3c2cc1OC
- T/C [1]: 134 % of control
- T/C (dose: 12.5 mg/kg/injection, schedule: Q01DX009 (ip), vehicle: other): 142 % of control
- T/C (dose: 20.0 mg/kg/injection, schedule: Q01DX009 (ip), vehicle: saline): 140 % of control
- T/C (dose: 25.0 mg/kg/injection, schedule: Q01DX009 (ip), vehicle: Klucel (hydroxypropylcellulose) (HPC)): 142 % of control
- T/C (dose: 40.0 mg/kg/injection, schedule: Q01DX009 (ip), vehicle: saline): 145 % of control
- T/C (dose: 50.0 mg/kg/injection, schedule: Q01DX009 (ip), vehicle: Klucel (hydroxypropylcellulose) (HPC)): 142 % of control
- T/C (dose: 100.0 mg/kg/injection, schedule: Q04DX003 (ip), vehicle: water): 148 % of control
- survivor count (dose: 200.0 mg/kg/injection, schedule: Q01DX009 (ip), vehicle: other): 6 of 6
- T/C (dose: 240.0 mg/kg/injection, schedule: Q04DX003 (ip), vehicle: saline): 145 % of control
- T/C [8]: 140 and 145 % of control
- survivor count [8]: 4 of 6
- T/C (dose: 400.0 mg/kg/injection, schedule: Q04DX003 (ip), vehicle: water): 134 % of control
- survivor count (dose: 600.0 mg/kg/injection, schedule: Q04DX003 (ip), vehicle: saline): 3 of 6

SMILES: Nc1nc(C=O)c(CCc2ccccc2)c(=O)[nH]1
- T/C (dose: 100.0 mg/kg/injection, schedule: Q04DX003 (ip), vehicle: saline with Tween-80): 127 % of control
- survivor count [9]: 1 of 6

SMILES: Cc1cc(-c2ccc(Cl)cc2)[n+](C)n1C
- survivor count [3]: 1 of 6

SMILES: Cc1nc2nc(N)nc(N)c2nc1Sc1ccc(Cl)cc1
- survivor count [9]: 6 of 6

SMILES: Cc1oc2c(C)c3oc(=O)cc(C)c3cc2c1CCl
- T/C (dose: 50.0 mg/kg/injection, schedule: Q04DX002 (ip), vehicle: saline with Tween-80): 133 % of control
- T/C (dose: 100.0 mg/kg/injection, schedule: Q04DX002 (ip), vehicle: saline with Tween-80): 133 % of control
- T/C (dose: 200.0 mg/kg/injection, schedule: Q04DX002 (ip), vehicle: saline with Tween-80): 140 % of control

SMILES: CNc1ccccc1C#N
- survivor count (dose: 200.0 mg/kg/injection, schedule: Q04DX003 (ip), vehicle: Klucel (hydroxypropylcellulose) (HPC)): 5 of 6
- survivor count (dose: 400.0 mg/kg/injection, schedule: Q01DX009 (ip), vehicle: Klucel (hydroxypropylcellulose) (HPC)): 6 of 6

SMILES: CC1C(=O)OC2CCN3CC4OC4(COC(=O)C(C)(O)C1(C)O)C23 (stereo not drawn)
- T/C (dose: 200.0 mg/kg/injection, schedule: Q04DX003 (ip), vehicle: saline sonified): 125 % of control

— PubChem BioAssay AID328 (DTP/NCI, 2004)
